Reference: PubChem BioAssay AID1259297 (Sanger Institute, 2017)
Purpose: 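siRNA screen across the kinome seeking drug partners in cells of colorectal cancer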 (primary screen). Cell system: human RCM1 colorectal cancer cell line. Reagents: siRNA pool against human genes. Challenge: separate arms: DMSO vehicle, or one anchor drug at a mild dose: BYL719 1 µM, cetuximab 5 µg/ml, trametinib 10 nM. Detection: 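Replicate-mean well viability as a share of non-targeting pool control, a robust z-score without drug, and synergy scores for BYL719, cetuximab and trametinib arms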. Reading the numbers: viability z-score, knock-down alone: higher = more viable cells than non-targeting controls; viability, knock-down alone (DMSO): higher = more viable cells. Units: viability, knock-down alone (DMSO) in fraction of control. Call rule: 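Essential when the viability robust z-score for knock-down alone is below -3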. Meaning of the calls: active = essential when knocked down alone; inactive = no clear loss of viability alone.
Shown is an unselected part of 794 reagents tested. Over the whole deposit, 13 (1.6%) are marked active. 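Calls reflect knock-down without drug only; drug synergy is judged separately, with scores above 0.15 counted as synergy.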 A number with no mark means an inactive call. No viability above 1 is reported: the scale is capped. Not all columns of the deposit are shown. The record does not give: the amount of reagent, the time to read-out.

LMTK3 (lemur tail kinase 3) → viability z-score, knock-down alone = 0.791; viability, knock-down alone (DMSO) = 0.99
MAP2K2 (mitogen-activated protein kinase kinase 2) → viability z-score, knock-down alone = -0.588; viability, knock-down alone (DMSO) = 0.862
MED24 (mediator complex subunit 24) → viability z-score, knock-down alone = 0.9; viability, knock-down alone (DMSO) = 1
SYK (spleen associated tyrosine kinase) → viability z-score, knock-down alone = -3.66 (active); viability, knock-down alone (DMSO) = 0.577
CDKL2 (cyclin dependent kinase like 2) → viability z-score, knock-down alone = -0.333; viability, knock-down alone (DMSO) = 0.886
PRKCI (protein kinase C iota) → viability z-score, knock-down alone = 0.101; viability, knock-down alone (DMSO) = 0.926
PSKH1 (protein serine kinase H1) → viability z-score, knock-down alone = 0.9; viability, knock-down alone (DMSO) = 1
BCR (BCR activator of RhoGEF and GTPase) → viability z-score, knock-down alone = -0.913; viability, knock-down alone (DMSO) = 0.832
MAPK3 (mitogen-activated protein kinase 3) → viability z-score, knock-down alone = 0.774; viability, knock-down alone (DMSO) = 0.988
LIMK1 (LIM domain kinase 1) → viability z-score, knock-down alone = -0.727; viability, knock-down alone (DMSO) = 0.849
FGFR2 (fibroblast growth factor receptor 2) → viability z-score, knock-down alone = 0.9; viability, knock-down alone (DMSO) = 1
BRDT (bromodomain testis associated) → viability z-score, knock-down alone = 0.9; viability, knock-down alone (DMSO) = 1
MASTL (microtubule associated serine/threonine kinase like) → viability z-score, knock-down alone = -0.889; viability, knock-down alone (DMSO) = 0.834
PRKDC (protein kinase, DNA-activated, catalytic subunit) → viability z-score, knock-down alone = -0.431; viability, knock-down alone (DMSO) = 0.876
NTN4 (netrin 4) → viability z-score, knock-down alone = -1.25; viability, knock-down alone (DMSO) = 0.8
MYLK3 (myosin light chain kinase 3) → viability z-score, knock-down alone = 0.9; viability, knock-down alone (DMSO) = 1
EPHA3 (EPH receptor A3) → viability z-score, knock-down alone = -1.68; viability, knock-down alone (DMSO) = 0.76
CDKN1B (cyclin dependent kinase inhibitor 1B) → viability z-score, knock-down alone = 0.548; viability, knock-down alone (DMSO) = 0.967
PHKA1 (phosphorylase kinase regulatory subunit alpha 1) → viability z-score, knock-down alone = 0.808; viability, knock-down alone (DMSO) = 0.991
STK4 (serine/threonine kinase 4) → viability z-score, knock-down alone = 0.9; viability, knock-down alone (DMSO) = 1
ITPKB (inositol-trisphosphate 3-kinase B) → viability z-score, knock-down alone = 0.862; viability, knock-down alone (DMSO) = 0.997
KCNH8 (potassium voltage-gated channel subfamily H member 8) → viability z-score, knock-down alone = -0.917; viability, knock-down alone (DMSO) = 0.831
TPD52L3 (TPD52 like 3) → viability z-score, knock-down alone = 0.115; viability, knock-down alone (DMSO) = 0.927
ALPK2 (alpha kinase 2) → viability z-score, knock-down alone = 0.691; viability, knock-down alone (DMSO) = 0.981
HIPK4 (homeodomain interacting protein kinase 4) → viability z-score, knock-down alone = 0.9; viability, knock-down alone (DMSO) = 1
MAPKAPK5 (MAPK activated protein kinase 5) → viability z-score, knock-down alone = 0.311; viability, knock-down alone (DMSO) = 0.945
TRPM6 → viability z-score, knock-down alone = 0.446; viability, knock-down alone (DMSO) = 0.958
FCSK (fucose kinase) → viability z-score, knock-down alone = -0.449; viability, knock-down alone (DMSO) = 0.875

Reformatted: 3 of the entries above
target	viability z-score, knock-down alone	viability, knock-down alone (DMSO)
STK4 (serine/threonine kinase 4)	0.9	1
ITPKB (inositol-trisphosphate 3-kinase B)	0.862	0.997
KCNH8 (potassium voltage-gated channel subfamily H member 8)	-0.917	0.831
